Measured values as given in doi:10.1101/806968.
No constants are given. Whether binding was seen depends on the method and setting. In cells and extracts the contact can be indirect. These calls come from enrichment with a bait or labelling near it, and not all partners need be listed. A no says only that the protein was not detected with the bait. Sequences can lack the tags named with a protein.

By UniProt entry, the sequences of proteins in these tests, tags left out. Where a name states a change or a piece, a line headed by the entry shows the natural chain unless it says otherwise.
UniProt Q9W2N5: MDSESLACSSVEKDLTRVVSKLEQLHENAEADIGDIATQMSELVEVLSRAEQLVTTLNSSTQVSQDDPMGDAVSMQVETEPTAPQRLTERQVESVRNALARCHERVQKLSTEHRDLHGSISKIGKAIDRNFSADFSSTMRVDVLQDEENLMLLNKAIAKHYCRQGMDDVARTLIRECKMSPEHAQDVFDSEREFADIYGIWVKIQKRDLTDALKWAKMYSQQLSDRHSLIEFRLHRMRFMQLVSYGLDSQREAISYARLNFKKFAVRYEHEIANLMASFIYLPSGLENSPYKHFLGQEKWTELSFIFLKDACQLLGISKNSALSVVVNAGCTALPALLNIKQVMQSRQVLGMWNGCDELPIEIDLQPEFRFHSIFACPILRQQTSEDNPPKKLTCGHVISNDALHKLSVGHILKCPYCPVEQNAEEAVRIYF
UniProt Q9VWS1: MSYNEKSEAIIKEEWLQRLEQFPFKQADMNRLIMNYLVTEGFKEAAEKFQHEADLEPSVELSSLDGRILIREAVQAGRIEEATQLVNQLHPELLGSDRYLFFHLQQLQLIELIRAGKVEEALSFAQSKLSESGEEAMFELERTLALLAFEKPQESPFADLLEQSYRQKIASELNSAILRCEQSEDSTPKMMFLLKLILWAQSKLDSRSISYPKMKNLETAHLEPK
UniProt E2QCI6: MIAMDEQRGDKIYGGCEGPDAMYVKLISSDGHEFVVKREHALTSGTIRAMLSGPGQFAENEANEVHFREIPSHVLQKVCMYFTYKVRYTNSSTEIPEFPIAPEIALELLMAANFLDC
UniProt O77430: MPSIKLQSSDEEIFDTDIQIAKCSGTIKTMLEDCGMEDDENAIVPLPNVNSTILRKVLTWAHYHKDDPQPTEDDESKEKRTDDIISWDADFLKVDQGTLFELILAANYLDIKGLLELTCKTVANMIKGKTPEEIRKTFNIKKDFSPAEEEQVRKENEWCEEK

Legend:
[1] = target: T1, Cup-GFP (Drosophila melanogaster) (UniProt Q9VMA3); assay: affinity purification with mass spectrometry
T1 sequence: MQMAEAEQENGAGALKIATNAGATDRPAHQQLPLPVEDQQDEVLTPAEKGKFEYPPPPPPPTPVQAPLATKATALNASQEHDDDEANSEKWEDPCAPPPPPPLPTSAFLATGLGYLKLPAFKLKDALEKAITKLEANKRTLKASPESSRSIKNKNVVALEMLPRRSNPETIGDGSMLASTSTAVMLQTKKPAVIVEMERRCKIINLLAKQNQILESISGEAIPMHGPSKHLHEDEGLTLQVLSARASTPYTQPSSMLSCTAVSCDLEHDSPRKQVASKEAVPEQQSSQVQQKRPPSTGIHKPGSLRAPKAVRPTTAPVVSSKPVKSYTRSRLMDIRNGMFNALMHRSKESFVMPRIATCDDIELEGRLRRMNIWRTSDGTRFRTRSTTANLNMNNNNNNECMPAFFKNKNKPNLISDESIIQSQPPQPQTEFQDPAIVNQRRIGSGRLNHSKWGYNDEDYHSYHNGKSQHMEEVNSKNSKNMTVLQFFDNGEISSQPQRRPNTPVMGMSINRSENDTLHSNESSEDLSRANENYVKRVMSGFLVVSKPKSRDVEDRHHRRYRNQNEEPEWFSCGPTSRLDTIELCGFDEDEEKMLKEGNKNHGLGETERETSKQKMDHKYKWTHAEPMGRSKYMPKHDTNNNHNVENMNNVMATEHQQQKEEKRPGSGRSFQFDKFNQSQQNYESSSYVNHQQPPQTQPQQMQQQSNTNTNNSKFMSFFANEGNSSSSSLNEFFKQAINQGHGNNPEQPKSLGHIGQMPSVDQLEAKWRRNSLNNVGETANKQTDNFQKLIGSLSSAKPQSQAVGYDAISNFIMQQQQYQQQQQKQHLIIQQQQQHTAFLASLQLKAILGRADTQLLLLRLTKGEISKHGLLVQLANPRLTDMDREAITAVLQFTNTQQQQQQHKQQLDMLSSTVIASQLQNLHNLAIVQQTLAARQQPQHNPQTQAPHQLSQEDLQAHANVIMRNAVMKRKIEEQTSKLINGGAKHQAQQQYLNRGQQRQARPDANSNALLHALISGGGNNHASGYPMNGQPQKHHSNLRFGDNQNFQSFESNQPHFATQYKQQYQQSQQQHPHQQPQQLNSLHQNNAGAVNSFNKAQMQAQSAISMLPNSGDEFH

[2] = target: T2, ME31B-GFP (Drosophila melanogaster) (UniProt P23128); assay: affinity purification with mass spectrometry
T2 sequence: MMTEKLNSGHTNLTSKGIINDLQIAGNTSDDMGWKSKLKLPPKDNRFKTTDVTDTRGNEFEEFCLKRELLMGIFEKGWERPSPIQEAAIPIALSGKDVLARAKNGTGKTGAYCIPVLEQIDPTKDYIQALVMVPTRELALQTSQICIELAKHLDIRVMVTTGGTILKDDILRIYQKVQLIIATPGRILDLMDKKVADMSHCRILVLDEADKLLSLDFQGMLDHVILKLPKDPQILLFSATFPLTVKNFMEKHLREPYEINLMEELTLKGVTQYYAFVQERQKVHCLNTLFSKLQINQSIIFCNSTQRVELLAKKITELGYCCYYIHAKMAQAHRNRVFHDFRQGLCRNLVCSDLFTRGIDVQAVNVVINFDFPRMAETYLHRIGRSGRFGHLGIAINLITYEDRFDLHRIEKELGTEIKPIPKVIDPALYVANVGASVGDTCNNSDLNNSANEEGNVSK

CG3295 (from UniProt Q9W2N5) was tested, and the binding [1] was “binds” and the binding [2] was “binds”.

For CG6617 (from UniProt Q9VWS1), the binding [1] was “binds” and the binding [2] was “binds”.

In the case of EloB, the binding [1] is reported as “binds” and the binding [2] is reported as “binds”.

In the case of EloC (from UniProt E2QCI6), the binding [1] is reported as “binds” and the binding [2] is reported as “binds”.

In the case of Muskelin, the binding [1] is reported as “binds” and the binding [2] is reported as “binds”.

In the case of SkpA (from UniProt O77430 1-162), the binding [1] is reported as “binds” and the binding [2] is reported as “binds”.

With Slmb the binding [1] was “binds” and the binding [2] was “binds”.

B1: Cup (protein, UniProt Q9VMA3 1-1117)
chain: T1 sequence
For B1, the binding [2] was “binds”.

B2: ME31B (protein, UniProt P23128 1-459)
chain: T2 sequence
With B2 the binding [1] was “binds”.

B3: Gus (protein, UniProt A1Z6E0 1-279)
chain: MGQKISGGVKTVSRNDSQSTFKPIIPRELQADFVKPARIDILLDMPPASRDLQLKHSWNSEDRSLNIFVKEDDKLTFHRHPVAQSTDCIRGKVGLTKGLHIWEIYWPTRQRGTHAVVGVCTADAPLHSVGYQSLVGSTEQSWGWDLGRNKLYHDSKNCAGVTYPAILKNDEAFLVPDKFLVALDMDEGTLSFIVDQQYLGIAFRGLRGKKLYPIVSAVWGHCEITMRYIGGLDPEPLPLMDLCRRTIRQKIGRTNLEEHIQQLQLPLSMKTYLLYKNRR
With B3 the binding [1] was “binds” and the binding [2] was “binds”.

B4: CG7611 (protein, UniProt Q7K0L4 1-630)
chain: MQSTSSTSSGSCSRPLEGSTLNSGGSAENVARDGGSGDDSVGIGDENPSGSSAATNGHDSKHNGFIVNNNGSSSRIVDGENNRENTSCSGVQLDKSNQEIIRLIGQYLHDVGLDKSVQTLMLESGCYLEHPSATKFREHVLMGDWSKADSDLKDLEPLIDNGKLATITEMKFILLEQKYLEHLDDGNPLDALHVLRSELTPLQHNITRVHQLSSYMMCSTNQDLYQRAKWEGKGILSRALVMERLQTFMPPSVMMSPRRLRTLLQQAVELQSQHCPCHDMAWETNLETVSLLTDHCCTTDGFPMQTIQILTDHCDEVWFCKFSPDGLKLATGSKDSTVIIWDVDPYKLTLKHRRVLDGQAQLSVSFVSWSPDSKLILVGGTEDSHELYIWNVDDGKLVVKFSQSLEDSLACGAFSRDGARFVCGGQKGQLYLCDLNGTIVDSWEGVRVNSIAFRADNKTILAADNHYRIRGYNFDSPRSDFDILREPHPIMTFSINSADRLALLNVSNQGLHLWDIEDKCLVRRFQGIRQSNFAIHSCFGGVNESFVASGSEDKVVYIWHIKREEPLAKLAGHTKTVNCVSWNPVYPSLLASASDDATVRIWGPKPNGSSATTESDDCSSSSSSSSWNMT
For B4, the binding [1] was “no binding” and the binding [2] was “no binding”.
